PubChem BioAssay AID2417 (National Center for Advancing Translational Sciences (NCATS), 2010)
In all, about 140,000 compounds went through this assay and about 4,300 (3.1%) were called active. Inconclusive means that the source gave no clear call. Such entries were picked first, then a sample of the others.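 Rule for the calls: active = readout at or below -70, meaning at least 70% loss of cells showing the perinucleolar compartment, a nuclear body marking cancer cells; inconclusive = readout between -30 and a set limit; inactive = the rest.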

Test: High Content Assay for Compounds that inhibit the Assembly of the Perinucleolar Compartment;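 note: plate controls were DMSO wells for no effect and camptothecin positive control wells for full effect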
Conditions: PC3M PTB-GFP, PNC prevalence imaging, 16 h; at 10 µM; hits give low values
How it was run: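 Compounds are pinned in duplicate onto adhered PC3M cells stably expressing GFP-tagged PTB and incubated 16 h at 37 C. Cells are then fixed, nuclei stained with Hoechst, and PNC-positive cells counted.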
In the case of `C=CCOc1ccc2nnc(C)n2n1`, the activity change (PNC), negative = inhibition is reported as inactive: 56.4%. In the case of `O=C(O)CCCN=CC1=C(O)C(C(=O)c2ccccc2)CCC1=O` (centres undefined), the activity change (PNC), negative = inhibition is reported as inconclusive: -50.7%. With `O=Cc1cn(CC(=O)N2CCOCC2)c2ccccc12` the activity change (PNC), negative = inhibition was inconclusive: -75.9%. In the case of `CCC(Sc1ncnc2c1nnn2-c1ccc(F)cc1)C(=O)OC` (centres undefined), the activity change (PNC), negative = inhibition is reported as inactive: 1.53%. In the case of `Cc1nn(-c2cccc(Cl)c2)c(Cl)c1/C=N/NC(=O)c1cccnc1`, the activity change (PNC), negative = inhibition is reported as active: -86.5%. For `Nc1ccc(-c2n[nH]c(=O)c3ccccc23)cc1N`, the activity change (PNC), negative = inhibition was inactive: -25.3%. In the case of `CCCCOc1ccc(NC(=O)Cn2c(=O)ccc3c(C)cc(C)nc32)cc1`, the activity change (PNC), negative = inhibition is reported as inconclusive: -63.7%. For `CNC(=S)N(CCc1c(C)[nH]c2ccc(C)cc12)Cc1ccc(OC)c(OC)c1`, the activity change (PNC), negative = inhibition was inconclusive: -36.4%. For `Nc1ncnc(Sc2ccc(Cl)cc2)c1[N+](=O)[O-]`, the activity change (PNC), negative = inhibition was active: -103%. For `O=C(N/N=C/c1ccc(Sc2ccccn2)o1)c1cc2ccccc2cc1O`, the activity change (PNC), negative = inhibition was inactive: 23.5%. With `O=C(O)CC12CSc3[nH]c(=O)sc3C1c1ccccc1OC2=O` (centres undefined) the activity change (PNC), negative = inhibition was active: -83.6%. With `CCc1nnc(NC(=O)CSc2nnc3c(C)cc4c(C)ccc(C)c4n23)s1` the activity change (PNC), negative = inhibition was active: -113%. With `O=C(CC1CCCC1)NCCc1cn2ccccc2n1` the activity change (PNC), negative = inhibition was inconclusive: -34.3%. With `O=C(Nc1ccn(Cc2ccc(Cl)cc2)n1)c1ccc2c(c1)OCO2` the activity change (PNC), negative = inhibition was active: -82.1%. In the case of `CCC(Sc1ncccc1C(=O)OC(C)C)C(=O)N1CCOCC1` (centres undefined), the activity change (PNC), negative = inhibition is reported as inconclusive: -37.7%. For `O=C(Nc1ccc(Cl)c(Cl)c1)Nc1ccccc1NS(=O)(=O)c1cccs1`, the activity change (PNC), negative = inhibition was inactive: 26.4%. In the case of `COc1ccc(C2=C(Nc3ccccc3)c3ccccc3C2=O)cc1`, the activity change (PNC), negative = inhibition is reported as inconclusive: -40.7%. In the case of `C=CCn1c(SCC(=O)Nc2cc3oc4ccccc4c3cc2OC)nnc1-c1cnccn1`, the activity change (PNC), negative = inhibition is reported as inconclusive: -46.4%. For `O=C(CN1C(=O)CCSc2ccccc21)Nc1ccc2c(c1)OCCO2`, the activity change (PNC), negative = inhibition was inactive: 5.48%. With `CCC(C)NC(=O)c1cn(C)c(=O)c2cc(OC)c(OC)cc12` (centres undefined) the activity change (PNC), negative = inhibition was inconclusive: -31.8%. In the case of `CCN(C(=O)c1ccccc1)c1ccc([N+](=O)[O-])cc1`, the activity change (PNC), negative = inhibition is reported as inactive: 35.1%. For `CCCC(=O)N(c1ccc2oc(=O)sc2c1)S(=O)(=O)c1cccs1`, the activity change (PNC), negative = inhibition was inconclusive: -47.5%. With `O=C1CCc2cc(S(=O)(=O)N3CCC(C(=O)NC4CCCCCCC4)CC3)ccc2N1` the activity change (PNC), negative = inhibition was inconclusive: -45.8%. With `CCOc1c2ccc(C(=O)NCCCCc3ccccc3)cc2nn1CC` the activity change (PNC), negative = inhibition was inactive: 33.2%. With `O=C(Nc1ccc(N2CCN(C(=O)c3ccc(Cl)cc3)CC2)cc1)c1ccc(Br)o1` the activity change (PNC), negative = inhibition was inconclusive: -41.7%. With `CCN(CC)CCNC(=O)c1cc(Cl)c(N)cc1OC` the activity change (PNC), negative = inhibition was inconclusive: -46.3%. With `CC1CN(C(=O)CN2C(=O)c3ccccc3S2(=O)=O)CC(C)O1` (centres undefined) the activity change (PNC), negative = inhibition was inconclusive: -33.8%. With `CC(NCc1ccc(N(C)C)cc1)C1CC2CCC1C2` (centres undefined) the activity change (PNC), negative = inhibition was inactive: 49%. With `N#C/C(=C/c1ccc(-c2ccc(C(=O)O)c(Cl)c2)o1)C(=O)NCC1CCCO1` (centres undefined) the activity change (PNC), negative = inhibition was inconclusive: -44.7%. For `Cc1csc(NC(=O)c2ccc3c(=O)n4c(nc3c2)CCCCC4)n1`, the activity change (PNC), negative = inhibition was inactive: 37.9%. For `CC1=Nn2c(nc(-c3ccccc3)c2-c2ccccc2)N(CC(N)=O)C(=O)C1`, the activity change (PNC), negative = inhibition was inconclusive: -41.3%. With `Cc1cc(NC(=O)CCOc2ccccc2)no1` the activity change (PNC), negative = inhibition was inconclusive: -45.9%. With `COc1ccc(CCN2C(=O)c3cccnc3C2=O)cc1OC` the activity change (PNC), negative = inhibition was inconclusive: -45.4%. For `CCc1nc2sc3c(c2c(=O)o1)CCCC3`, the activity change (PNC), negative = inhibition was inconclusive: -59%. For `O=C(O)c1cnn(-c2ccccc2)c1-n1cccc1`, the activity change (PNC), negative = inhibition was inactive: -14.7%. With `Cc1ccccc1NC(=O)CCn1c(=O)oc2ccccc21` the activity change (PNC), negative = inhibition was inconclusive: -40.7%. For `CCOc1ccccc1Nc1ncccc1C(=O)O`, the activity change (PNC), negative = inhibition was inactive: -8.23%. In the case of `Cn1cc(Br)c(C(=O)NC(=S)N2CCN(c3ccccn3)CC2)n1`, the activity change (PNC), negative = inhibition is reported as active: -86.4%. With `Cc1ccc(N2C(=O)C3C(c4ccccc4)N4CCCN4C3(C)C2=O)cc1` (centres undefined) the activity change (PNC), negative = inhibition was inconclusive: -53.5%. For `O=C(COc1ccccc1Cl)Nc1cnn(Cc2ccccc2)c1`, the activity change (PNC), negative = inhibition was active: -94%. In the case of `O=C(CSc1nnc(Cc2cc(=O)[nH]c(=O)[nH]2)n1-c1ccccc1)N1CCCC1`, the activity change (PNC), negative = inhibition is reported as inconclusive: -31.4%. With `CCOC(=O)c1cc(C(=O)OCC)cc(-n2c(C)cc(C(=O)CN3CCOCC3)c2C)c1` the activity change (PNC), negative = inhibition was inconclusive: -30.3%. For `O=S(=O)(Nc1cc(Cl)ccc1N1CCCCC1)c1cccs1`, the activity change (PNC), negative = inhibition was inconclusive: -67.3%. For `O=S(=O)(c1cccs1)N1CCN(C/C=C/c2ccccc2)CC1`, the activity change (PNC), negative = inhibition was inactive: 27.6%. In the case of `CC(C)CCNC(=O)CC1Nc2c3ccccc3nc(=S)n2C1=O` (centres undefined), the activity change (PNC), negative = inhibition is reported as inconclusive: -39.1%. In the case of `COC(=O)CSc1nnc2n1C(C)(C)Cc1ccccc1-2`, the activity change (PNC), negative = inhibition is reported as inconclusive: -35.4%. With `O=C(N/N=C/c1ccc(-c2ccccc2C(=O)O)o1)c1cccs1` the activity change (PNC), negative = inhibition was inconclusive: -44.2%. For `O=C(O)CC(C(=O)NC1CCCCC1)C1CCCO1` (centres undefined), the activity change (PNC), negative = inhibition was inconclusive: -52.8%. In the case of `O=C(c1ccccc1NS(=O)(=O)c1ccc(F)cc1)N1CCc2ccccc21`, the activity change (PNC), negative = inhibition is reported as inconclusive: -38.3%. With `COC(=O)C(C(=O)OC)=C(/C=C/N(C)C)N(C)C` the activity change (PNC), negative = inhibition was inconclusive: -34.3%. With `Cc1c(N2C(=O)c3ccc(Br)cc3C2=O)c(=O)n(-c2ccccc2)n1C` the activity change (PNC), negative = inhibition was inactive: 35%. In the case of `COC(=O)Nc1ccc(S(=O)(=O)N2CCCc3ccccc32)cc1`, the activity change (PNC), negative = inhibition is reported as inconclusive: -41.2%. In the case of `O=C(CN1CCN(CC(=O)Nc2ccccn2)CC1)Nc1ccccn1`, the activity change (PNC), negative = inhibition is reported as inconclusive: -45.6%. For `O=C(Nc1cccc(S(=O)(=O)Nc2ccccc2Cl)c1)c1ccc(Cl)nc1`, the activity change (PNC), negative = inhibition was inconclusive: -44%. For `COc1cccc(C2=NOC(C(=O)Nc3cccnc3)C2)c1` (centres undefined), the activity change (PNC), negative = inhibition was inactive: 38%. With `Cn1c(SCC(=O)N2CCCc3ccccc32)nnc1-c1ccco1` the activity change (PNC), negative = inhibition was inactive: -17.1%. With `CN(C)/C(CN1CCCCC1)=C1\N=C(c2ccccc2)OC1=O` the activity change (PNC), negative = inhibition was inconclusive: -36%. For `CCOC(=O)c1cc(-c2ccccc2)sc1NC(=O)C(C)OC(=O)c1cccnc1Cl` (centres undefined), the activity change (PNC), negative = inhibition was inactive: -7.11%. For `COc1ccc(CCNC(=O)C(=O)NCc2ccc(C)cc2)cc1OC`, the activity change (PNC), negative = inhibition was inconclusive: -63.1%.
